Measurements from patent US20090137484A1, “Neuronal Network-Interacting Peptide” (NATIONAL UNIVERSITY OF SINGAPORE, priority 2004, published 2009).
These are yes or no findings as the source states them, for the method shown. Some entries that bind do so weakly or less than the wild type.

By UniProt entry, the sequences of proteins in these tests, tags left out. Residues count along the entry.
Grb4 (115-257) containing the second and third SH3 domains (O43639, residues 115-257): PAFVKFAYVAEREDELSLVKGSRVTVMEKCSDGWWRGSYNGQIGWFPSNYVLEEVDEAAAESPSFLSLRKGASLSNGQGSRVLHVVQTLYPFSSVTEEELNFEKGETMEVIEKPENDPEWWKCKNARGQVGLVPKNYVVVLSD
third Grb4 SH3 domain, Grb4 residues 199-257 (O43639, residues 199-257): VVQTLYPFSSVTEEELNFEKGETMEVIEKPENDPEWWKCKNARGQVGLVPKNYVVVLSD

Columns and labels:
[1] = biological target: Grb4 (115-257) containing the second and third SH3 domains (human) (UniProt O43639); test: 1H-15N NMR HSQC titration, four-fold excess of unlabelled Nogo-A (1-200) on 15N-labelled Grb4 (115-257)
[2] = biological target: third Grb4 SH3 domain, Grb4 residues 199-257 (human) (UniProt O43639); test: NMR HSQC titration
[3] = biological target: Grb4 (115-257) containing the second and third SH3 domains (human) (UniProt O43639); test: NMR HSQC titration
[4] = biological target: third Grb4 SH3 domain, Grb4 residues 199-257 (human) (UniProt O43639); test: ITC
[5] = biological target: Grb4 (115-257) containing the second and third SH3 domains (human) (UniProt O43639); test: ITC

Measured: binding

Nogo-A (1-200) (from UniProt Q9NQC3 1-200)
binds: [1] | [2] | [3]

B1: Nogo-A (32-200) (other)
chain: EDEEEEEEEEEEDEDEDLEELEVLERKPAAGLSAAPVPTAPAAGAPLMDFGNDFVPPAPRGPLPAAPPVAPERQPSWDPSPVSSTVPAPSPLSAAAVSPSKLPEDDEPPARPPPPPPASVSPQAEPVWTPPAPAPAAPPSTPAAPKRRGSSGSVDETLFALPAASEPVI
notes: Recombinant, cloned into pET32a and expressed in E. coli
not listed: [1]
binds: all other assays above
